Results as given in article PMC4154660.
These are yes or no findings as the source states them, for the method shown. Some binding calls cover weakened binding; strength is not graded here.

Sequences of proteins named here, by UniProt entry; tags and fusion partners are left off.
UniProt F7VVV0: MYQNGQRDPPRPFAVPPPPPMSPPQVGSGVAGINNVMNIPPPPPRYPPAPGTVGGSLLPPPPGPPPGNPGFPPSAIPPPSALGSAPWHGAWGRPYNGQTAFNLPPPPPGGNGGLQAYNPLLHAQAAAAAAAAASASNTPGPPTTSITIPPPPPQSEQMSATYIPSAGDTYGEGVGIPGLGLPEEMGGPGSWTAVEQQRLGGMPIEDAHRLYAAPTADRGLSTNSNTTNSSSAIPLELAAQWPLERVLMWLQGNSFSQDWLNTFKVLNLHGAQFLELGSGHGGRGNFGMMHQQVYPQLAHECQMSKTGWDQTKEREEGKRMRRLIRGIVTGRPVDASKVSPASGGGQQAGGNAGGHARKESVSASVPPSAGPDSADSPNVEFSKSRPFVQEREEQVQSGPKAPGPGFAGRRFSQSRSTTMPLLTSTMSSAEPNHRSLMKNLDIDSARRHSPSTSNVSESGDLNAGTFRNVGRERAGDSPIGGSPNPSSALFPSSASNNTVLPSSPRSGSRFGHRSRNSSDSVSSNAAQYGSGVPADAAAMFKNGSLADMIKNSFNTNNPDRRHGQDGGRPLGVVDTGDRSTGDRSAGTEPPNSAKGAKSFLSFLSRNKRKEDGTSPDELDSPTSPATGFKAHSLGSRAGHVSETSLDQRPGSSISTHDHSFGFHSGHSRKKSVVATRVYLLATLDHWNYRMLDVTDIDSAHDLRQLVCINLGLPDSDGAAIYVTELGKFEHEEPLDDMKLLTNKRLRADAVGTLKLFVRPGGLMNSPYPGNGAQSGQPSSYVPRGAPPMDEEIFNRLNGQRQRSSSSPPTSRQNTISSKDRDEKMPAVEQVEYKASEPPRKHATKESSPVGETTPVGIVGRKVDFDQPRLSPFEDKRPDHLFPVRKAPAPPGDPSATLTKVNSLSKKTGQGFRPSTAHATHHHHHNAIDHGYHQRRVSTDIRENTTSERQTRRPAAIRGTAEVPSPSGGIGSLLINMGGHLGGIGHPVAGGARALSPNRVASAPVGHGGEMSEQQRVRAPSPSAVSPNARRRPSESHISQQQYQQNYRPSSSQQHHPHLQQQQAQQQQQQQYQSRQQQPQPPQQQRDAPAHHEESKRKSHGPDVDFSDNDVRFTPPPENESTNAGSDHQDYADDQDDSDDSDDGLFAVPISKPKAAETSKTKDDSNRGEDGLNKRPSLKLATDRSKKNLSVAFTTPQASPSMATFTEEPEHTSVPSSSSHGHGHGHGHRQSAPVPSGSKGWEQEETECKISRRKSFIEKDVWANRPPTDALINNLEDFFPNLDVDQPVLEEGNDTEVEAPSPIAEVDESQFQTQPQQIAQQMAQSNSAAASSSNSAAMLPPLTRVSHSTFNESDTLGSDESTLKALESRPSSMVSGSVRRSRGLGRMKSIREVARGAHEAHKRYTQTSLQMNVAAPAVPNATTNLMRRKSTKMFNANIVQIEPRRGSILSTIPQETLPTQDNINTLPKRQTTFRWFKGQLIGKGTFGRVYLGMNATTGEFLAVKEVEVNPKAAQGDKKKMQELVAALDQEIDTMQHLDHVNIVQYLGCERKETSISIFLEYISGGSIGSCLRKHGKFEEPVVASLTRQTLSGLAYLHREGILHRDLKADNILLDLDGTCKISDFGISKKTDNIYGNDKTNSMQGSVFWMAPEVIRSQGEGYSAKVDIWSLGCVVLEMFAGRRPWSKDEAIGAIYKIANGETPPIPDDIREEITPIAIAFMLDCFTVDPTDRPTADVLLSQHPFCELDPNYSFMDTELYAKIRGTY

Columns and labels:
[1] = molecular target: MIK1 (yeast two-hybrid, full length) (Sordaria macrospora) (UniProt F7VVV0); test: two-hybrid; reciprocal matrix of GAL4-AD and -BD fusions in diploid yeast, drop-plated on SD lacking leucine, tryptophan, histidine and adenine
[2] = molecular target: PKC1 (yeast two-hybrid, full length) (Sordaria macrospora) (UniProt F7W233); test: as above

binding [1] | binding [2] | Molecule
binds |  | MIK1 (yeast two-hybrid, full length) (from UniProt F7VVV0 1-1764) (enzyme)
 | binds | PKC1 (yeast two-hybrid, full length) (enzyme, UniProt F7W233 1-1146) MNDEDKVHDISKKIEREKALINAAQAMRQQTNNEQVRSKLDTQMREGRRNLEFFEEKLRELQMRRLGHGVDNMSLGASPMSGSHRQSVDDFEGHGAPTPPPKEGGRGHSSHQSQGSGPLMPASGPYPGGPPDSAVPRARPNYTRLDLIKFDTPHLGPRIQLMLSQIQFKLNVEEQYLKGIEKMVQLYQMEGDKKSKLDAAAKRVESKQKIVLLKQALKRYEELHIDIDVDGPDDDSINLPALRKPLSGTLSIRILAVKDVDHAPLGRFARSPETFIAVKAEDIIVARTRPSRNDRWEAEFHTFPVDKTNEIEFTVYDKPSEHPVPIAMLWVRISDIVEELRRKKIEAEMTSAGWVSADRVGSRAPPPQFPMGTQSPQFAAPPTSPGSQEQNIMIPPQAPPPSQVVSQPVDGWFNLEPYGQIHLSFNFMKESRPQGMDRLGRKGAVRQRKEEVHEMYGHKFVQKQFYNIMRCALCGDFLKYSAGMQCEDCKYTCHTKCYTSVVTKCISKSNAETDPDEEKINHRIPHRFIPFSNLTANWCCHCGYMLPIGSKKNSRKCSECALTAHAQCVHLVPDFCGMSMAVANQILEGIRTQKKTHKDKASSMSERTLRPGSKTSFSSGSIAQTSTYSGSTAYTSIASPEATEAAKLMYSQTTPRPAGPDRTSTSSTTASAAAAAAMAPKHSSQPSQAGSIPDFGGNYGGSGSYGHPESREDEYNAQQQQGYGSPQQRKYNPADYANIGAYSSPPQAQHPQQQQQQQSPQQVSPMYQQNPQTPISKPQPVAPSYDNQVVPSASGVPVPTKKPLPSATDPGTGMRIGLDHFNFLAVLGKGNFGKVMLAETKKSRKLYAIKVLKKEFIIENDEVESIRSEKRVFLIANRERHPFLTNLHACFQTETRVYFVMEYISGGDLMLHIQRGMFGTKRAQFYAAEVCLALKYFHENGVIYRDLKLDNILLTLDGHIKIADYGLCKEDMWYGSTTSTFCGTPEFMAPEILLDKKYGRAVDWWAFGVLIYQMLLQQSPFRGEDEDEIYDAILADEPLYPIHMPRDSVSILQKLLTREPDQRLGSGPTDAQEIMSQPFFRNINWDDIYHKRVQPPFLPQIKSATDTSNFDSEFTSVTPVLTPVQSVLSQAMQEEFRGFSYTADFE
